Results deposited as PubChem BioAssay AID1224830 (NIAID, 2016).
Aim: 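Host factors that control LPS-induced TNF expression in human macrophages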 (primary screen). Cell system: human THP-1 monocytic leukaemia cells, TNF dual-luciferase reporter clone, PMA-differentiated to macrophage-like cells. Reagent: siRNA pool against human genes, 50 nM. Duration: LPS for 4 h, given about 3 days after siRNA transfection. Treatment: bacterial LPS (TLR4 ligand), 10 ng/ml. Measured: 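TNF firefly reporter luminescence divided by renilla, normalised to the plate median, then turned into a robust z-score for each replicate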. Direction: TNF reporter robust z-score: higher = stronger TNF reporter response to LPS. Rule for the call: 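Each well counts as active if its z-score is over 2.8 or under -1.5; controls are left without a call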.
Shown is an unselected part of about 18,000 reagents tested. Over the whole deposit, about 2,900 (16%) were called active. 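Calls are made per well; low scores hint the gene aids the LPS response, high scores that it dampens it.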 Repeated entries: four replicate wells of each siRNA pool.

target,PubChem SID,TNF reporter robust z-score,Outcome
RNF7,SID315453423,-1.58,active
RNF7,SID315453423,-0.65,inactive
RNF7,SID315453423,-1.39,inactive
RNF7,SID315453423,-1.11,inactive
OLAH,SID315457579,0.9,inactive
OLAH,SID315457579,2.65,inactive
OLAH,SID315457579,0.44,inactive
OLAH,SID315457579,1.87,inactive
NFKBIB,SID315450235,-1.29,inactive
NFKBIB,SID315450235,-0.96,inactive
NFKBIB,SID315450235,-0.94,inactive
NFKBIB,SID315450235,-0.38,inactive
BLM,SID315447552,-1.06,inactive
BLM,SID315447552,-1.17,inactive
BLM,SID315447552,-0.19,inactive
BLM,SID315447552,0.79,inactive
TNFSF18,SID315452966,1.2,inactive
TNFSF18,SID315452966,-0.81,inactive
TNFSF18,SID315452966,-0.64,inactive
TNFSF18,SID315452966,0.43,inactive
TTYH3,SID315459786,-0.09,inactive
TTYH3,SID315459786,0.5,inactive
TTYH3,SID315459786,-1.06,inactive
TTYH3,SID315459786,-1.11,inactive
RAP1B,SID315451047,0.46,inactive
RAP1B,SID315451047,0.22,inactive
RAP1B,SID315451047,1.98,inactive
RAP1B,SID315451047,-0.12,inactive
OR1N1,SID315462058,2.03,inactive
OR1N1,SID315462058,0.24,inactive
OR1N1,SID315462058,1.27,inactive
OR1N1,SID315462058,-0.58,inactive
TAAR1,SID315461982,-0.3,inactive
TAAR1,SID315461982,0.94,inactive
TAAR1,SID315461982,-0.17,inactive
TAAR1,SID315461982,0.63,inactive
IQCK,SID315461602,-1.52,active
IQCK,SID315461602,-0.85,inactive
IQCK,SID315461602,-1.69,active
IQCK,SID315461602,-1.55,active
CATSPERE,SID315463545,-0.88,inactive
CATSPERE,SID315463545,0.12,inactive
CATSPERE,SID315463545,0.43,inactive
CATSPERE,SID315463545,-0.26,inactive
PTTG2,SID315454330,-0.15,inactive
PTTG2,SID315454330,0.51,inactive
PTTG2,SID315454330,-1.45,inactive
PTTG2,SID315454330,-1.75,active
TRIM68,SID315457427,0.3,inactive
TRIM68,SID315457427,-0.78,inactive
TRIM68,SID315457427,-0.6,inactive
TRIM68,SID315457427,0.52,inactive
MLANA,SID315448725,-0.68,inactive
MLANA,SID315448725,-0.11,inactive
MLANA,SID315448725,-0.23,inactive
MLANA,SID315448725,-0.05,inactive
TAS2R40,SID315463579,0.48,inactive
TAS2R40,SID315463579,2.4,inactive
TAS2R40,SID315463579,-0.72,inactive
TAS2R40,SID315463579,-0.76,inactive
CHCHD3,SID315457271,-0.63,inactive
CHCHD3,SID315457271,-0.42,inactive
CHCHD3,SID315457271,1.31,inactive
CHCHD3,SID315457271,-0.41,inactive
CDKL2,SID315452969,-0.9,inactive
CDKL2,SID315452969,0.93,inactive
CDKL2,SID315452969,-1.21,inactive
CDKL2,SID315452969,-0.67,inactive
GLG1,SID315448916,-0.91,inactive
GLG1,SID315448916,0.49,inactive
GLG1,SID315448916,-1.38,inactive
GLG1,SID315448916,4.77,active
GSR,SID315449074,-0.86,inactive
GSR,SID315449074,-0.17,inactive
GSR,SID315449074,-0.45,inactive
GSR,SID315449074,-0.78,inactive
ZNF385D,SID315459434,,inactive
HSFX1,SID315456697,-1.89,active
HSFX1,SID315456697,-1.69,active
HSFX1,SID315456697,-1.55,active
HSFX1,SID315456697,-1.85,active
MARCHF10,SID315462743,0.14,inactive
MARCHF10,SID315462743,0.05,inactive
MARCHF10,SID315462743,0.59,inactive
MARCHF10,SID315462743,0.09,inactive
ADCY5,SID315447188,2.73,inactive
ADCY5,SID315447188,-0.1,inactive
ADCY5,SID315447188,0.41,inactive
ADCY5,SID315447188,0.68,inactive
HGF,SID315449185,1.92,inactive
HGF,SID315449185,0.27,inactive
HGF,SID315449185,1.68,inactive
HGF,SID315449185,0.6,inactive
EIF3L,SID315456688,0.17,inactive
EIF3L,SID315456688,-0.47,inactive
EIF3L,SID315456688,-0.12,inactive
EIF3L,SID315456688,0.87,inactive
TTF1,SID315452002,-1.79,active
TTF1,SID315452002,-0.38,inactive
TTF1,SID315452002,-0.67,inactive
TTF1,SID315452002,-0.07,inactive
ASCL1,SID315447424,1.13,inactive
ASCL1,SID315447424,1.34,inactive
ASCL1,SID315447424,0.4,inactive
ASCL1,SID315447424,2.2,inactive
GET3,SID315447431,-0.12,inactive
GET3,SID315447431,1.74,inactive
GET3,SID315447431,0.43,inactive
GET3,SID315447431,1.53,inactive
DHODH,SID315448303,1.82,inactive
DHODH,SID315448303,1.53,inactive
DHODH,SID315448303,2.93,active
DHODH,SID315448303,1.97,inactive
ACSM6,SID315462171,-0.38,inactive
ACSM6,SID315462171,-0.8,inactive
ACSM6,SID315462171,0.03,inactive
ACSM6,SID315462171,0.97,inactive
MYO18A,SID315453133,-0.38,inactive
MYO18A,SID315453133,-0.84,inactive
MYO18A,SID315453133,-1.55,active
MYO18A,SID315453133,-0.42,inactive
MYO18A,SID315464717,1.24,inactive
MYO18A,SID315464717,0.48,inactive
MYO18A,SID315464717,-0.29,inactive
MYO18A,SID315464717,1.12,inactive
SSX2,SID315451660,1.96,inactive
SSX2,SID315451660,1.12,inactive
SSX2,SID315451660,2.16,inactive
SSX2,SID315451660,-0.7,inactive
RBM34,SID315454939,-0.97,inactive
RBM34,SID315454939,-0.7,inactive
RBM34,SID315454939,-0.99,inactive
RBM34,SID315454939,-0.88,inactive
UQCRC1,SID315452083,1.66,inactive
UQCRC1,SID315452083,2.41,inactive
UQCRC1,SID315452083,0.37,inactive
UQCRC1,SID315452083,0.41,inactive
FLOT2,SID315448729,-0.92,inactive
FLOT2,SID315448729,-1,inactive
FLOT2,SID315448729,-1.1,inactive
FLOT2,SID315448729,-1.19,inactive

22 of these entries in another layout.
OLAH [SID315457579]: TNF reporter robust z-score = 1.87; Outcome = inactive
NFKBIB [SID315450235]: TNF reporter robust z-score = -1.29; Outcome = inactive
NFKBIB [SID315450235]: TNF reporter robust z-score = -0.96; Outcome = inactive
NFKBIB [SID315450235]: TNF reporter robust z-score = -0.94; Outcome = inactive
NFKBIB [SID315450235]: TNF reporter robust z-score = -0.38; Outcome = inactive
BLM [SID315447552]: TNF reporter robust z-score = -1.06; Outcome = inactive
BLM [SID315447552]: TNF reporter robust z-score = -1.17; Outcome = inactive
BLM [SID315447552]: TNF reporter robust z-score = -0.19; Outcome = inactive
BLM [SID315447552]: TNF reporter robust z-score = 0.79; Outcome = inactive
TNFSF18 [SID315452966]: TNF reporter robust z-score = 1.2; Outcome = inactive
TNFSF18 [SID315452966]: TNF reporter robust z-score = -0.81; Outcome = inactive
TNFSF18 [SID315452966]: TNF reporter robust z-score = -0.64; Outcome = inactive
TNFSF18 [SID315452966]: TNF reporter robust z-score = 0.43; Outcome = inactive
TTYH3 [SID315459786]: TNF reporter robust z-score = -0.09; Outcome = inactive
TTYH3 [SID315459786]: TNF reporter robust z-score = 0.5; Outcome = inactive
TTYH3 [SID315459786]: TNF reporter robust z-score = -1.06; Outcome = inactive
TTYH3 [SID315459786]: TNF reporter robust z-score = -1.11; Outcome = inactive
RAP1B [SID315451047]: TNF reporter robust z-score = 0.46; Outcome = inactive
RAP1B [SID315451047]: TNF reporter robust z-score = 0.22; Outcome = inactive
RAP1B [SID315451047]: TNF reporter robust z-score = 1.98; Outcome = inactive
RAP1B [SID315451047]: TNF reporter robust z-score = -0.12; Outcome = inactive
OR1N1 [SID315462058]: TNF reporter robust z-score = 2.03; Outcome = inactive
